Results deposited as PubChem BioAssay AID1224830 (NIAID, 2016).
Aim: 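Host factors that control LPS-induced TNF expression in human macrophages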 (primary screen). Cells: human THP-1 monocytic leukaemia cells, TNF dual-luciferase reporter clone, PMA-differentiated to macrophage-like cells. Reagents: siRNA pool against human genes, 50 nM. Duration: LPS for 4 h, given about 3 days after siRNA transfection. Conditions: bacterial LPS (TLR4 ligand), 10 ng/ml. Read-out: 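Ratio of firefly to renilla light, scaled to the plate median and expressed as a robust z-score per replicate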. Reading the numbers: TNF reporter robust z-score: higher = stronger TNF reporter response to LPS. Rule for the call: 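a well is active when its z-score exceeds 2.8 or falls below -1.5; control wells carry no call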.
This is an unselected part of about 18,000 reagents tested. Over the whole deposit, about 2,900 (16%) were called active. 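Calls are made per well; low scores hint the gene aids the LPS response, high scores that it dampens it.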 Repeated entries: four replicate wells of each siRNA pool. No sequences are given here.

{"target":"NOL6","TNF reporter robust z-score":-0.35,"activity call":"inactive"}
{"target":"NOL6","TNF reporter robust z-score":-0.26,"activity call":"inactive"}
{"target":"NOL6","TNF reporter robust z-score":-0.61,"activity call":"inactive"}
{"target":"NOL6","TNF reporter robust z-score":-0.56,"activity call":"inactive"}
{"target":"PLK4","TNF reporter robust z-score":-0.17,"activity call":"inactive"}
{"target":"PLK4","TNF reporter robust z-score":-0.41,"activity call":"inactive"}
{"target":"PLK4","TNF reporter robust z-score":-1.03,"activity call":"inactive"}
{"target":"PLK4","TNF reporter robust z-score":0.28,"activity call":"inactive"}
{"target":"RBX1","TNF reporter robust z-score":0.75,"activity call":"inactive"}
{"target":"RBX1","TNF reporter robust z-score":1.1,"activity call":"inactive"}
{"target":"RBX1","TNF reporter robust z-score":4.58,"activity call":"active"}
{"target":"RBX1","TNF reporter robust z-score":2.46,"activity call":"inactive"}
{"target":"KAT6A","TNF reporter robust z-score":0.62,"activity call":"inactive"}
{"target":"KAT6A","TNF reporter robust z-score":1.12,"activity call":"inactive"}
{"target":"KAT6A","TNF reporter robust z-score":2.35,"activity call":"inactive"}
{"target":"KAT6A","TNF reporter robust z-score":1.4,"activity call":"inactive"}
{"target":"OR2T35","TNF reporter robust z-score":-1.48,"activity call":"inactive"}
{"target":"OR2T35","TNF reporter robust z-score":-1.01,"activity call":"inactive"}
{"target":"OR2T35","TNF reporter robust z-score":-0.98,"activity call":"inactive"}
{"target":"OR2T35","TNF reporter robust z-score":-0.29,"activity call":"inactive"}
{"target":"EMC10","TNF reporter robust z-score":0.43,"activity call":"inactive"}
{"target":"EMC10","TNF reporter robust z-score":0.29,"activity call":"inactive"}
{"target":"EMC10","TNF reporter robust z-score":-0.11,"activity call":"inactive"}
{"target":"EMC10","TNF reporter robust z-score":0.88,"activity call":"inactive"}
{"target":"COG2","TNF reporter robust z-score":0.04,"activity call":"inactive"}
{"target":"COG2","TNF reporter robust z-score":0.89,"activity call":"inactive"}
{"target":"COG2","TNF reporter robust z-score":0.65,"activity call":"inactive"}
{"target":"COG2","TNF reporter robust z-score":-0.41,"activity call":"inactive"}
{"target":"ZNF585A","TNF reporter robust z-score":0.2,"activity call":"inactive"}
{"target":"ZNF585A","TNF reporter robust z-score":1.13,"activity call":"inactive"}
{"target":"ZNF585A","TNF reporter robust z-score":0.82,"activity call":"inactive"}
{"target":"ZNF585A","TNF reporter robust z-score":-0.31,"activity call":"inactive"}
{"target":"ZNF25","TNF reporter robust z-score":0.22,"activity call":"inactive"}
{"target":"ZNF25","TNF reporter robust z-score":0.39,"activity call":"inactive"}
{"target":"ZNF25","TNF reporter robust z-score":0.63,"activity call":"inactive"}
{"target":"ZNF25","TNF reporter robust z-score":0.01,"activity call":"inactive"}
{"target":"SLC2A10","TNF reporter robust z-score":2.07,"activity call":"inactive"}
{"target":"SLC2A10","TNF reporter robust z-score":-0.23,"activity call":"inactive"}
{"target":"SLC2A10","TNF reporter robust z-score":1.7,"activity call":"inactive"}
{"target":"SLC2A10","TNF reporter robust z-score":0.65,"activity call":"inactive"}
{"target":"METTL2B","TNF reporter robust z-score":-0.02,"activity call":"inactive"}
{"target":"METTL2B","TNF reporter robust z-score":0.47,"activity call":"inactive"}
{"target":"METTL2B","TNF reporter robust z-score":0.56,"activity call":"inactive"}
{"target":"METTL2B","TNF reporter robust z-score":-0.42,"activity call":"inactive"}
{"target":"ZNF146","TNF reporter robust z-score":-0.7,"activity call":"inactive"}
{"target":"ZNF146","TNF reporter robust z-score":-0.06,"activity call":"inactive"}
{"target":"ZNF146","TNF reporter robust z-score":-1.2,"activity call":"inactive"}
{"target":"ZNF146","TNF reporter robust z-score":-0.54,"activity call":"inactive"}
{"target":"MOGAT3","TNF reporter robust z-score":2.15,"activity call":"inactive"}
{"target":"MOGAT3","TNF reporter robust z-score":1.01,"activity call":"inactive"}
{"target":"MOGAT3","TNF reporter robust z-score":1.15,"activity call":"inactive"}
{"target":"MOGAT3","TNF reporter robust z-score":0.94,"activity call":"inactive"}
{"target":"OR2T34","TNF reporter robust z-score":-0.67,"activity call":"inactive"}
{"target":"OR2T34","TNF reporter robust z-score":0.14,"activity call":"inactive"}
{"target":"OR2T34","TNF reporter robust z-score":-0.16,"activity call":"inactive"}
{"target":"OR2T34","TNF reporter robust z-score":0,"activity call":"inactive"}
{"target":"DMRT3","TNF reporter robust z-score":-1.35,"activity call":"inactive"}
{"target":"DMRT3","TNF reporter robust z-score":-1.03,"activity call":"inactive"}
{"target":"DMRT3","TNF reporter robust z-score":-1.38,"activity call":"inactive"}
{"target":"CLCA4","TNF reporter robust z-score":-0.79,"activity call":"inactive"}
{"target":"CLCA4","TNF reporter robust z-score":0.95,"activity call":"inactive"}
{"target":"CLCA4","TNF reporter robust z-score":-0.88,"activity call":"inactive"}
{"target":"CLCA4","TNF reporter robust z-score":0.66,"activity call":"inactive"}
